Experimental data from the supplement of paper PMC5836539.
± gives the standard deviation of the averaged measurements. Single values are uncertain here, since repeats match poorly.

Protein sequences, listed by entry. Tags and fused reporters are not part of them. Lines headed by an entry give the natural chain unless they say otherwise; changes in a name come on top.
UniProt Q9BQI3, whole entry, looked up: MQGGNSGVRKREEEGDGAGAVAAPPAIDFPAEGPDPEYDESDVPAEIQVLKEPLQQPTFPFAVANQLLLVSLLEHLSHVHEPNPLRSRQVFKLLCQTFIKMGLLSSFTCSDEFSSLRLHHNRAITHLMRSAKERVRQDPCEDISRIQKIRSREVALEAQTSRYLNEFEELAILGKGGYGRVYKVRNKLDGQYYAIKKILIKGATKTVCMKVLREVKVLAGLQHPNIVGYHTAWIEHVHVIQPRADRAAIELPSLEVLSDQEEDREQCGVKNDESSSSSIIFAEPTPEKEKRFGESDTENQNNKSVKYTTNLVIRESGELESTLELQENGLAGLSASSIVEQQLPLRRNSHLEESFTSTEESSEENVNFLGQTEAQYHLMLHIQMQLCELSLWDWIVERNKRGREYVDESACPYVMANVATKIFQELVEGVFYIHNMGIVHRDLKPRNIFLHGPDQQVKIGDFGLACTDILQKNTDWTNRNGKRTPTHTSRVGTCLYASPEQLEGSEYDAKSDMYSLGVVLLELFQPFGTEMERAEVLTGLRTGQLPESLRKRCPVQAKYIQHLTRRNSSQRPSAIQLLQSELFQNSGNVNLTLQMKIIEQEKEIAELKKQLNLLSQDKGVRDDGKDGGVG
UniProt Q9BUH6, whole entry: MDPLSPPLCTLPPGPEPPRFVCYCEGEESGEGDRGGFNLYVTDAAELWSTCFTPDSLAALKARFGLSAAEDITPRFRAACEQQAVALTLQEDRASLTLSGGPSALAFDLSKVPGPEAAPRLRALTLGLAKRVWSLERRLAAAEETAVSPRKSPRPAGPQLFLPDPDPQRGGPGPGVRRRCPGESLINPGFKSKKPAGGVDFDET
UniProt Q9BUR4: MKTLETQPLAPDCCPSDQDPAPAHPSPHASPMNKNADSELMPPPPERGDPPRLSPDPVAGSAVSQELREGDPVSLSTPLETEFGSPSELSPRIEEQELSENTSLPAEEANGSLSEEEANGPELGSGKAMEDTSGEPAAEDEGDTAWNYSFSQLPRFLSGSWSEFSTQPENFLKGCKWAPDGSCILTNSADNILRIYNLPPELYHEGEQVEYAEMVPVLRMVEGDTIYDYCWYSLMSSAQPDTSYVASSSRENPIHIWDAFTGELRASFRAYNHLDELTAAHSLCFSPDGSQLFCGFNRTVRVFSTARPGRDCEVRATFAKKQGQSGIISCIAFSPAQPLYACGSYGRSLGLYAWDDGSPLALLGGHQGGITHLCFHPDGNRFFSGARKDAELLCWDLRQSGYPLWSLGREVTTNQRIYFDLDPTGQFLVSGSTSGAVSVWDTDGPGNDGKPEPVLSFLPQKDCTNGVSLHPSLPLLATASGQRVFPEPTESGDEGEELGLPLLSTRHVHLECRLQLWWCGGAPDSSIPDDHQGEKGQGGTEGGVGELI
UniProt Q9BV36: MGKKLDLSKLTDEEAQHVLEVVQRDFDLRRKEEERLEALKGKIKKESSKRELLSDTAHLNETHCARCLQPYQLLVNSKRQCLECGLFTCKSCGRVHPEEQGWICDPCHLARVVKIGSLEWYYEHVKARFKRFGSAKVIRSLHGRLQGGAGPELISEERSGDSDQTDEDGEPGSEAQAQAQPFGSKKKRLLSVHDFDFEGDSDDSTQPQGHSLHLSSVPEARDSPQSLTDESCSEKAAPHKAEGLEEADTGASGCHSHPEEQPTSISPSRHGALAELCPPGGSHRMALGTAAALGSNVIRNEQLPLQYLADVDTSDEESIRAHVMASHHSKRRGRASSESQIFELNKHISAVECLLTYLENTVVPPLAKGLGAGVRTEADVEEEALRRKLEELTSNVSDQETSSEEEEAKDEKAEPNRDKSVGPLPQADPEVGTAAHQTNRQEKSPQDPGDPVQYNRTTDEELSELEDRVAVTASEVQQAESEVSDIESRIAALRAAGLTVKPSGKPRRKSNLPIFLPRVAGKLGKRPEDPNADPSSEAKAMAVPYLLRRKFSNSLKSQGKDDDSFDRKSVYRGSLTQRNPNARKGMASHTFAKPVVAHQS
UniProt Q9BXW6, whole entry, looked up: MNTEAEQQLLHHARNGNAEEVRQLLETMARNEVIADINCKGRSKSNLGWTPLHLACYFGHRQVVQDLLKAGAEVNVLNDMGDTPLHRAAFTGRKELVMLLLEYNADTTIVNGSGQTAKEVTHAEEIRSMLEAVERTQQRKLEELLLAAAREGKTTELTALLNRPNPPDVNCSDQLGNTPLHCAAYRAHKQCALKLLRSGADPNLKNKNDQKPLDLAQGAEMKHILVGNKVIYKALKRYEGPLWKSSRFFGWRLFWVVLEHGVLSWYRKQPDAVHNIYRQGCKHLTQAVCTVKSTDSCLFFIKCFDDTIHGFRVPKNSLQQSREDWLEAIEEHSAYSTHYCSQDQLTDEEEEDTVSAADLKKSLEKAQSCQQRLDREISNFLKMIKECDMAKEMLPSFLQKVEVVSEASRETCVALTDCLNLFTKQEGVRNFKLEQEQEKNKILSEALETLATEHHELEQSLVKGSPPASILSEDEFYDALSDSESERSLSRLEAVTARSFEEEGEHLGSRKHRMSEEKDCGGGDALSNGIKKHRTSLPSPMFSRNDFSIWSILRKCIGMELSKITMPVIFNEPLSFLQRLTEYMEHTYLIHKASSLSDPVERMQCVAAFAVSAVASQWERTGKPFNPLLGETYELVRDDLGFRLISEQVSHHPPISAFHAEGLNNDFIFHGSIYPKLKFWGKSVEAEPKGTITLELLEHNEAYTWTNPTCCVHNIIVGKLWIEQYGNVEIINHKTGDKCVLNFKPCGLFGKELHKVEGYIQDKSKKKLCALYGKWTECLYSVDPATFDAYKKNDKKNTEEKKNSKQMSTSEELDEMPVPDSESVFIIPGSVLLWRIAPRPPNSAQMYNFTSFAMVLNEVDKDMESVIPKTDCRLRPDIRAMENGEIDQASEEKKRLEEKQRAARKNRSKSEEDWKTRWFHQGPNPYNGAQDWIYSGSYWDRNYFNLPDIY
UniProt Q9BZQ8: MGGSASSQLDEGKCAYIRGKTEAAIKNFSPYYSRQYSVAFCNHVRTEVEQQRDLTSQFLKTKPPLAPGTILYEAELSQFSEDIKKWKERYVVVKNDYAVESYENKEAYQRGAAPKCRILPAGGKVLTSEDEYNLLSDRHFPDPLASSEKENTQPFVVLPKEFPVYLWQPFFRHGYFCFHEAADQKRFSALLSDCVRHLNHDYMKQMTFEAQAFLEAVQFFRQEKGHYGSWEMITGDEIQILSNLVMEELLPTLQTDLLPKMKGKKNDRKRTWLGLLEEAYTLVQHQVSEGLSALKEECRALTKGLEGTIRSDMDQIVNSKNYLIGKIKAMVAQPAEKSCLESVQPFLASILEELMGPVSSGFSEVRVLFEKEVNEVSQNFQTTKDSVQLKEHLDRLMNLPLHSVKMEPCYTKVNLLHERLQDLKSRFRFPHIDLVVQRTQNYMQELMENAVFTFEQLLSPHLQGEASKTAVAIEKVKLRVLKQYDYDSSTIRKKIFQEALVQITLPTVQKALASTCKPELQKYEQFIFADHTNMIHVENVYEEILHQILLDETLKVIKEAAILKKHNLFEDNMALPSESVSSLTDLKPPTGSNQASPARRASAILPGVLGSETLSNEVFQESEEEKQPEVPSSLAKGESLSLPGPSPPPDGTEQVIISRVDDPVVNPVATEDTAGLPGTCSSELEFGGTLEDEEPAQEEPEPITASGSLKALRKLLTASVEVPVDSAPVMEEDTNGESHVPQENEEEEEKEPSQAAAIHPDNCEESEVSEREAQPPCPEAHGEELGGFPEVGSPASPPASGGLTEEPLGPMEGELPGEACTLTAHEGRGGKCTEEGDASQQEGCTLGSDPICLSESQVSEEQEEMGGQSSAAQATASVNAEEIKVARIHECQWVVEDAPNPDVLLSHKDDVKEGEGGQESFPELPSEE
UniProt Q9H0E9, whole entry, looked up: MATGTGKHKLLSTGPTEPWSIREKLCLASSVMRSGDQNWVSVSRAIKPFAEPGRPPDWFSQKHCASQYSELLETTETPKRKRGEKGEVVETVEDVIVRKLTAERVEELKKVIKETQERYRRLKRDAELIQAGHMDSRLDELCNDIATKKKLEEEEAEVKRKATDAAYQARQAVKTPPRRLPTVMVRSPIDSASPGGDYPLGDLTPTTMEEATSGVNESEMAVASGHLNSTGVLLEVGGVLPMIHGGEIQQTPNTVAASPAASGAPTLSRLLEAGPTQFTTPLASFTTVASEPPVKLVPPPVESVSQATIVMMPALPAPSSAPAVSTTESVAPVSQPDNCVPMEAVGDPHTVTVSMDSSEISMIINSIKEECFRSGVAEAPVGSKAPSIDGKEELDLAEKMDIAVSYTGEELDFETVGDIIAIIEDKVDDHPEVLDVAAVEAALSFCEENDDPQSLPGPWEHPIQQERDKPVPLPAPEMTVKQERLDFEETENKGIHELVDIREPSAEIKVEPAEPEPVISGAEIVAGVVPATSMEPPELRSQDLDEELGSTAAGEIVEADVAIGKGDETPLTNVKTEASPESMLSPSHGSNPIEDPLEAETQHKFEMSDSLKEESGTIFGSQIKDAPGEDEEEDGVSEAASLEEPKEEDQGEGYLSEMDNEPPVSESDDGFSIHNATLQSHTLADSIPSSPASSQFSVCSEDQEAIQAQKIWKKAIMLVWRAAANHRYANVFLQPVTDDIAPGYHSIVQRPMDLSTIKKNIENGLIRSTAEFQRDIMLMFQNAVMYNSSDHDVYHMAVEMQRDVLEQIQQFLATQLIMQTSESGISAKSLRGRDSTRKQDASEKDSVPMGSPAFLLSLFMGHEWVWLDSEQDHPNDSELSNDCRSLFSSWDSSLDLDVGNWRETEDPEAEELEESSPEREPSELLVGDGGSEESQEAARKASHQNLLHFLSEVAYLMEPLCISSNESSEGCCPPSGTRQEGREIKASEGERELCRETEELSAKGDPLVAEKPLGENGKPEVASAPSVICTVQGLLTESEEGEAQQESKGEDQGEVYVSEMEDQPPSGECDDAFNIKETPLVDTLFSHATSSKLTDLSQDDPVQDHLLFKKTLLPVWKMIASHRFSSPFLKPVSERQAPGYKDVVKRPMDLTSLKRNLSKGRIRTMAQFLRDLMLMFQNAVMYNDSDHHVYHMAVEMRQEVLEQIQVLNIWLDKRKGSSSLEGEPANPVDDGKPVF
UniProt Q9H0G5: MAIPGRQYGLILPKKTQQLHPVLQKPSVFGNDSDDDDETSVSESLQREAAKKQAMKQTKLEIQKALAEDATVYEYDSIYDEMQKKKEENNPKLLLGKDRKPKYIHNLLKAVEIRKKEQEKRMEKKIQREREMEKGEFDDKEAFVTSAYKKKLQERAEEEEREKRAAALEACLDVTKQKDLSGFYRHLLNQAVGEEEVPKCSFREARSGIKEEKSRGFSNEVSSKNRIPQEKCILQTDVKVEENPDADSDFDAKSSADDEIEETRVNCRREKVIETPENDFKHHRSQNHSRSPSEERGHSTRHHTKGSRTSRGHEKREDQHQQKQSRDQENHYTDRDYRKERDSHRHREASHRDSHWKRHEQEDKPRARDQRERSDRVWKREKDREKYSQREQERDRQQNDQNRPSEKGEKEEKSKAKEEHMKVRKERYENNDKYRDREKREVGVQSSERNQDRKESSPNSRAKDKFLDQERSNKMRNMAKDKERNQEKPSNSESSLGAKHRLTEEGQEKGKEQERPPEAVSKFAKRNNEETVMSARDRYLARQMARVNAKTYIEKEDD
UniProt Q9H2I8: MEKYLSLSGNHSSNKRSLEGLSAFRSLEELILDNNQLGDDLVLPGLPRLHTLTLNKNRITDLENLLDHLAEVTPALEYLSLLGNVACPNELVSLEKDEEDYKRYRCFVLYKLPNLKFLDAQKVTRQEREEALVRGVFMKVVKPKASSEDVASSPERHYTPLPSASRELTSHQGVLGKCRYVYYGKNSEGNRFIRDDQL
UniProt Q9H6T3, whole entry, looked up: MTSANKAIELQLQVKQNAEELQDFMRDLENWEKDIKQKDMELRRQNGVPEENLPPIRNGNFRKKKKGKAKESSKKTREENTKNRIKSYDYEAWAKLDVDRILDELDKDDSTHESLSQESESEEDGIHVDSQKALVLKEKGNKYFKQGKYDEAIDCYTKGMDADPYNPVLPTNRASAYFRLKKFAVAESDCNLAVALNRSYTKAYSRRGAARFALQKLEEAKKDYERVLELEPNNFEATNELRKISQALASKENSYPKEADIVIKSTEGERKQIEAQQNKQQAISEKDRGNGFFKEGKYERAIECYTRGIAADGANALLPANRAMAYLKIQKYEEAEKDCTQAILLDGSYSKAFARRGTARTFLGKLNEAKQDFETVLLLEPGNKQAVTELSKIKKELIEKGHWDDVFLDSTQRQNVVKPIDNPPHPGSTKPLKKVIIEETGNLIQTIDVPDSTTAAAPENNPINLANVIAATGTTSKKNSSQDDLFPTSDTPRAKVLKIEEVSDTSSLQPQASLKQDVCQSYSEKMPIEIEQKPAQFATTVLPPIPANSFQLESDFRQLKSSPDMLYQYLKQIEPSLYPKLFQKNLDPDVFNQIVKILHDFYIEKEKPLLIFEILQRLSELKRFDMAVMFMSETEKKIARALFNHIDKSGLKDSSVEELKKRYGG

Each target was assayed with CC[C@@H](C)Nc1cc(C(=O)N[C@H]2C[C@H]3CC[C@@H](C2)N3c2ccc(C(=O)C3CC3)cn2)c(C)cc1C(N)=O [XL888] (assay: phosphopeptide melting temperature shift (XL888 minus DMSO); higher = stabilised by drug treatment). Settings: 100 µM; treatment time 2 h; layout: intact cells; SK-Mel 28.
Description: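 Phospho-TPP in intact SK-Mel 28 cells treated with 100 uM XL888 or DMSO for 2 h, heated at 10 temperatures (37-67 C) for 3 min, soluble fraction TMT10plex-labelled and TiO2 phospho-enriched. Melting curves were fitted per phosphopeptide; the value is the melting point difference (drug minus vehicle) in each of two biological replicates.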
For “UniProt Q8WUA7-3_phosphosite_96 (phosphosite position: 96)”, the “phosphopeptide melting temperature shift” value was -1.3 °C.
“UniProt Q8WUI4-3_phosphosite_368 (phosphosite position: 368)” was tested, and the “phosphopeptide melting temperature shift” value was -0.905 °C.
For “UniProt Q8WVC0-2_phosphosite_151 (phosphosite position: 151)”, the “phosphopeptide melting temperature shift” value was 1.7 ± 0.71 °C.
With “UniProt Q8WVC0-2_phosphosite_154 (phosphosite position: 154)” the “phosphopeptide melting temperature shift” value was 1.7 ± 0.71 °C.
With “UniProt Q8WVC0-2_phosphosite_212 (phosphosite position: 212)” the “phosphopeptide melting temperature shift” value was 2.32 °C.
With “UniProt Q8WVC0-2_phosphosite_220 (phosphosite position: 220)” the “phosphopeptide melting temperature shift” value was 1.7 °C.
For “UniProt Q8WWI1-3_phosphosite_246 (phosphosite position: 246)”, the “phosphopeptide melting temperature shift” value was 3.54 °C.
With “UniProt Q8WWI1-3_phosphosite_533 (phosphosite position: 533)” the “phosphopeptide melting temperature shift” value was 0.798 ± 1.2 °C.
In the case of “UniProt Q8WWI1-3_phosphosite_654 (phosphosite position: 654)”, the “phosphopeptide melting temperature shift” value is reported as 0.715 ± 1.2 °C.
With “UniProt Q8WWI1-3_phosphosite_1259 (phosphosite position: 1259)” the “phosphopeptide melting temperature shift” value was -0.0522 °C.
“UniProt Q8WWM7-6_phosphosite_559 (phosphosite position: 559)” was tested, and the “phosphopeptide melting temperature shift” value was 0.842 °C.
In the case of “UniProt Q8WX93-4_phosphosite_182 (phosphosite position: 182)”, the “phosphopeptide melting temperature shift” value is reported as 0.383 °C.
With “UniProt Q8WX93-4_phosphosite_410 (phosphosite position: 410)” the “phosphopeptide melting temperature shift” value was 1.07 °C.
In the case of “UniProt Q8WXE1-5_phosphosite_97 (phosphosite position: 97)”, the “phosphopeptide melting temperature shift” value is reported as 1.45 °C.
With “UniProt Q8WYA6-3_phosphosite_293 (phosphosite position: 293)” the “phosphopeptide melting temperature shift” value was -2.04 °C.
In the case of “UniProt Q8WYL5-4_phosphosite_203 (phosphosite position: 203)”, the “phosphopeptide melting temperature shift” value is reported as 2.21 °C.
In the case of “UniProt Q8WYL5-4_phosphosite_209 (phosphosite position: 209)”, the “phosphopeptide melting temperature shift” value is reported as 2.21 °C.
With “UniProt Q8WYQ5-3_phosphosite_271 (phosphosite position: 271)” the “phosphopeptide melting temperature shift” value was 1.92 °C.
For “UniProt Q8WYQ5-3_phosphosite_275 (phosphosite position: 275)”, the “phosphopeptide melting temperature shift” value was 1.92 °C.
For “UniProt Q9BQI3-2_phosphosite_257 (phosphosite position: 257)”, the “phosphopeptide melting temperature shift” value was 2.01 °C.
“UniProt Q9BSJ6-2_phosphosite_16 (phosphosite position: 16)” was tested, and the “phosphopeptide melting temperature shift” value was 0.977 °C.
“UniProt Q9BSQ5-4_phosphosite_326 (phosphosite position: 326)” was tested, and the “phosphopeptide melting temperature shift” value was 0.542 °C.
For “UniProt Q9BTA9-5_phosphosite_408 (phosphosite position: 408)”, the “phosphopeptide melting temperature shift” value was 4.74 °C.
For “UniProt Q9BUB5-3_phosphosite_180 (phosphosite position: 180)”, the “phosphopeptide melting temperature shift” value was 0.352 ± 0.44 °C.
“UniProt Q9BUB5-3_phosphosite_185 (phosphosite position: 185)” was tested, and the “phosphopeptide melting temperature shift” value was 0.294 ± 0.79 °C.
In the case of “UniProt Q9BUH6_phosphosite_148 (phosphosite position: 148)”, the “phosphopeptide melting temperature shift” value is reported as -1.24 °C.
“UniProt Q9BUJ2-3_phosphosite_151 (phosphosite position: 151)” was tested, and the “phosphopeptide melting temperature shift” value was -0.327 ± 0.13 °C.
“UniProt Q9BUK6-5_phosphosite_317 (phosphosite position: 317)” was tested, and the “phosphopeptide melting temperature shift” value was -0.419 °C.
“UniProt Q9BUR4_phosphosite_85 (phosphosite position: 85)” was tested, and the “phosphopeptide melting temperature shift” value was -0.00358 °C.
“UniProt Q9BV36_phosphosite_201 (phosphosite position: 201)” was tested, and the “phosphopeptide melting temperature shift” value was -3.71 ± 0.28 °C.
In the case of “UniProt Q9BV36_phosphosite_313 (phosphosite position: 313)”, the “phosphopeptide melting temperature shift” value is reported as 0.966 °C.
For “UniProt Q9BVJ6-3_phosphosite_353 (phosphosite position: 353)”, the “phosphopeptide melting temperature shift” value was -4.32 °C.
“UniProt Q9BVJ6-3_phosphosite_355 (phosphosite position: 355)” was tested, and the “phosphopeptide melting temperature shift” value was -4.32 °C.
“UniProt Q9BVS4-2_phosphosite_337 (phosphosite position: 337)” was tested, and the “phosphopeptide melting temperature shift” value was 0.0549 ± 0.26 °C.
“UniProt Q9BW85_phosphosite_211 (phosphosite position: 211)” was tested, and the “phosphopeptide melting temperature shift” value was -0.83 ± 2.1 °C.
“UniProt Q9BW85_phosphosite_213 (phosphosite position: 213)” was tested, and the “phosphopeptide melting temperature shift” value was 0.899 ± 0.23 °C.
With “UniProt Q9BXP5-5_phosphosite_67 (phosphosite position: 67)” the “phosphopeptide melting temperature shift” value was 0.255 ± 0.34 °C.
With “UniProt Q9BXP5-5_phosphosite_74 (phosphosite position: 74)” the “phosphopeptide melting temperature shift” value was 0.247 ± 0.56 °C.
“UniProt Q9BXW6-4_phosphosite_117 (phosphosite position: 117)” was tested, and the “phosphopeptide melting temperature shift” value was 2.02 °C.
With “UniProt Q9BYE7-3_phosphosite_115 (phosphosite position: 115)” the “phosphopeptide melting temperature shift” value was 2.84 °C.
“UniProt Q9BYW2-3_phosphosite_754 (phosphosite position: 754)” was tested, and the “phosphopeptide melting temperature shift” value was -0.0306 °C.
For “UniProt Q9BZ23-3_phosphosite_66 (phosphosite position: 66)”, the “phosphopeptide melting temperature shift” value was 0.75 °C.
“UniProt Q9BZQ8_phosphosite_582 (phosphosite position: 582)” was tested, and the “phosphopeptide melting temperature shift” value was 0.451 ± 1.6 °C.
In the case of “UniProt Q9BZQ8_phosphosite_602 (phosphosite position: 602)”, the “phosphopeptide melting temperature shift” value is reported as -0.955 ± 0.31 °C.
With “UniProt Q9BZQ8_phosphosite_622 (phosphosite position: 622)” the “phosphopeptide melting temperature shift” value was 1.61 ± 1.1 °C.
In the case of “UniProt Q9H0D6-2_phosphosite_423 (phosphosite position: 423)”, the “phosphopeptide melting temperature shift” value is reported as -1.3 ± 4.1 °C.
In the case of “UniProt Q9H0D6-2_phosphosite_425 (phosphosite position: 425)”, the “phosphopeptide melting temperature shift” value is reported as 1.8 °C.
In the case of “UniProt Q9H0E9-3_phosphosite_124 (phosphosite position: 124)”, the “phosphopeptide melting temperature shift” value is reported as 1.3 ± 4.1 °C.
In the case of “UniProt Q9H0E9-3_phosphosite_128 (phosphosite position: 128)”, the “phosphopeptide melting temperature shift” value is reported as 0.662 ± 3.2 °C.
“UniProt Q9H0G5_phosphosite_275 (phosphosite position: 275)” was tested, and the “phosphopeptide melting temperature shift” value was 4.33 °C.
“UniProt Q9H1B7_phosphosite_69 (phosphosite position: 69)” was tested, and the “phosphopeptide melting temperature shift” value was 2.42 °C.
In the case of “UniProt Q9H1H9-3_phosphosite_1481 (phosphosite position: 1481)”, the “phosphopeptide melting temperature shift” value is reported as -0.449 °C.
In the case of “UniProt Q9H2G2-2_phosphosite_189 (phosphosite position: 189)”, the “phosphopeptide melting temperature shift” value is reported as 3.86 °C.
“UniProt Q9H2I8_phosphosite_153 (phosphosite position: 153)” was tested, and the “phosphopeptide melting temperature shift” value was -1.83 °C.
For “UniProt Q9H3Q1-2_phosphosite_222 (phosphosite position: 222)”, the “phosphopeptide melting temperature shift” value was 3.77 °C.
For “UniProt Q9H4A3-2_phosphosite_1782 (phosphosite position: 1782)”, the “phosphopeptide melting temperature shift” value was 0.614 ± 0.26 °C.
In the case of “UniProt Q9H4A3-2_phosphosite_1785 (phosphosite position: 1785)”, the “phosphopeptide melting temperature shift” value is reported as 0.414 ± 0.42 °C.
With “UniProt Q9H4G0-3_phosphosite_541 (phosphosite position: 541)” the “phosphopeptide melting temperature shift” value was 2.89 °C.
For “UniProt Q9H4L5-5_phosphosite_251 (phosphosite position: 251)”, the “phosphopeptide melting temperature shift” value was 2.48 ± 1.4 °C.
“UniProt Q9H4L5-5_phosphosite_265 (phosphosite position: 265)” was tested, and the “phosphopeptide melting temperature shift” value was 2.12 °C.
In the case of “UniProt Q9H4L5-5_phosphosite_410 (phosphosite position: 410)”, the “phosphopeptide melting temperature shift” value is reported as 1.16 ± 2.9 °C.
With “UniProt Q9H6R7_phosphosite_468 (phosphosite position: 468)” the “phosphopeptide melting temperature shift” value was -1.1 °C.
With “UniProt Q9H6T3-2_phosphosite_116 (phosphosite position: 116)” the “phosphopeptide melting temperature shift” value was -0.995 °C.
“UniProt Q9H6T3-2_phosphosite_119 (phosphosite position: 119)” was tested, and the “phosphopeptide melting temperature shift” value was 4.57 ± 3.4 °C.
With “UniProt Q9H6T3-2_phosphosite_121 (phosphosite position: 121)” the “phosphopeptide melting temperature shift” value was 4.72 ± 3.4 °C.
In the case of “UniProt Q9H6U6-7_phosphosite_555 (phosphosite position: 555)”, the “phosphopeptide melting temperature shift” value is reported as -1.63 °C.
With “UniProt Q9H6Z4-3_phosphosite_32 (phosphosite position: 32)” the “phosphopeptide melting temperature shift” value was 0.465 °C.
For “UniProt Q9H6Z4-3_phosphosite_33 (phosphosite position: 33)”, the “phosphopeptide melting temperature shift” value was -1.37 ± 0.061 °C.
In the case of “UniProt Q9H7C4-2_phosphosite_325 (phosphosite position: 325)”, the “phosphopeptide melting temperature shift” value is reported as -1.65 °C.
“UniProt Q9H410-4_phosphosite_42 (phosphosite position: 42)” was tested, and the “phosphopeptide melting temperature shift” value was 0.996 °C.
With “UniProt Q9H410-4_phosphosite_65 (phosphosite position: 65)” the “phosphopeptide melting temperature shift” value was 3.81 °C.
With “UniProt Q9NPE2-3_phosphosite_41 (phosphosite position: 41)” the “phosphopeptide melting temperature shift” value was -2.23 °C.
“UniProt Q9NPQ8-4_phosphosite_435 (phosphosite position: 435)” was tested, and the “phosphopeptide melting temperature shift” value was 0.492 °C.
With “UniProt Q9NQ55-2_phosphosite_238 (phosphosite position: 238)” the “phosphopeptide melting temperature shift” value was -1.85 ± 1.7 °C.
With “UniProt Q9NQ55-2_phosphosite_240 (phosphosite position: 240)” the “phosphopeptide melting temperature shift” value was -0.212 ± 0.16 °C.
For “UniProt Q9NQC3-5_phosphosite_181 (phosphosite position: 181)”, the “phosphopeptide melting temperature shift” value was 1.44 ± 0.47 °C.
